The values that follow come from US20160258933A1 (Dana-Farber, published 2016).

Sequences of proteins named here, by UniProt entry; tags and fusion partners are left off.
UniProt P10415: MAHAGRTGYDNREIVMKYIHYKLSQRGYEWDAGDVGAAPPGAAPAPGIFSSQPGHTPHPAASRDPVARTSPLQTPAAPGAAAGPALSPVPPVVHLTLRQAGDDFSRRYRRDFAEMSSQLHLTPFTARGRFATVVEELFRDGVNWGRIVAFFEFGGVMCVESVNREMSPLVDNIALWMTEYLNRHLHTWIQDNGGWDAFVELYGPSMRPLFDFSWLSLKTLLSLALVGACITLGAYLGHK
UniProt O54918: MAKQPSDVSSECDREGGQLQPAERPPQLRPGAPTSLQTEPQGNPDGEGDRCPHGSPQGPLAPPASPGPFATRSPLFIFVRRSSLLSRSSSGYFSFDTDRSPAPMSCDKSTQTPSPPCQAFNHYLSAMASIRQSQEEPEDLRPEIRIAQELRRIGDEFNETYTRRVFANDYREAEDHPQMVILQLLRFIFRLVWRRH

Results are given in words; binding and its absence hold for the method and conditions named. Binding seen in cells or lysates may run through a third protein. Some results given as binding are weak or reduced against the parent protein; the word gives no strength.

The target of assay [1] is human BCL-2 (cellular, whole protein) (human) (UniProt P10415). The assay can be described thus: co-immunoprecipitation with anti-human BCL-2 antibody from murine leukemia cell lysate, immunoblot. (In general: Immunoblotting shows a protein as a band on a membrane.)
The target is the same in assay [2]. Description: co-immunoprecipitation with anti-human BCL-2 antibody from FL5.12-BCL-2 lysates, immunoblot.

As for “BIM (endogenous, murine cells) (from UniProt O54918 1-196)”, the binding entry in assay [1] and in assay [2] was “binds” each time.

B1: PUMA (endogenous, murine leukemia cells) (protein, UniProt Q99ML1 1-193, looked up)
chain: MARARQEGSSPEPVEGLARDSPRPFPLGRLMPSAVSCSLCEPGLPAAPAAPALLPAAYLCAPTAPPAVTAALGGPRWPGGHRSRPRGPRPDGPQPSLSPAQQHLESPVPSAPEALAGGPTQAAPGVRVEEEEWAREIGAQLRRMADDLNAQYERRRQEEQHRHRPSPWRVMYNLFMGLLPLPRDPGAPEMEPN
As to B1, the binding entry in assay [1] was “binds”.
